# Results from PubChem BioAssay AID1671190 (National Center for Advancing Translational Sciences (NCATS), 2021).
# Sequences of proteins named here, by UniProt entry; tags and fusion partners are left off. A change or cut given only in a name is not applied to a line headed by its entry.
# UniProt P18054: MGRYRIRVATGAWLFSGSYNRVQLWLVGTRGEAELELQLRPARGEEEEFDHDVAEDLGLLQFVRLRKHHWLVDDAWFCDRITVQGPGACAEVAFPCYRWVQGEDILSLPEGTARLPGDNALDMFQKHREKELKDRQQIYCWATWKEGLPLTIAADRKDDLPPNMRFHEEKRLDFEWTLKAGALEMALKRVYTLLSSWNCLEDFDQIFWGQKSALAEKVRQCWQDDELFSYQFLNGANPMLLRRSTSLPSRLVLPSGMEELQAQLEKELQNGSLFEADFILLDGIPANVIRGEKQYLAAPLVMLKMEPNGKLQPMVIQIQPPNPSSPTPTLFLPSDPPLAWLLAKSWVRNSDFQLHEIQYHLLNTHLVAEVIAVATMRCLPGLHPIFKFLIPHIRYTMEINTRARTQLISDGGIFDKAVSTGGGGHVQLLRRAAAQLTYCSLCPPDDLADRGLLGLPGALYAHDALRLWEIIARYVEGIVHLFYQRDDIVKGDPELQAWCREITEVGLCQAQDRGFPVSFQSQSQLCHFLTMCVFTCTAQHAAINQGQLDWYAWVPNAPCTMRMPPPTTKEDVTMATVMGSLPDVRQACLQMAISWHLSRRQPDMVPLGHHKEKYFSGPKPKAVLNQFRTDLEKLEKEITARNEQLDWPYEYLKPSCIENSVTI
# The campaign covered roughly 580,000 compounds. About 6,100 (1.1%) were called active. Inconclusive means that the source gave no clear call. Such entries were picked first, then a sample of the others. Calls come from the whole dose curve; as a rule, active = well fitted inhibition curve with a large enough effect; inconclusive = small, poorly fitted or top-dose-only effect, or another doubt; inactive = no such curve, though single readings can be large or run the other way. Potencies of inconclusive entries are doubtful fits and often do not repeat.
# Target: Polyunsaturated fatty acid lipoxygenase ALOX12 (Homo sapiens) (UniProt P18054)
# Experiment: Primary qHTS assay for inhibitors of human arachidonate 12S-lipoxygenase (ALOX12): Round 2
# Details: purified 12hLO, xylenol orange hydroperoxide absorbance; activity change, negative = inhibition: at 108 µM (top of the series) unless noted
# In short: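 Purified human 12hLO at 150 nM in 25 mM Hepes, 0.01% Triton X-100, pH 7.0, preincubated 15 min at room temperature with compound. Reaction started with 40 uM arachidonic acid, 30 min at room temperature. Hydroperoxide measured by Fe-xylenol orange, 573/405 nm absorbance ratio.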
# % is set by controls: 0 for no effect and ±100 for the full control effect; potency is the fitted concentration of half-maximal effect.
Compound,Potency,"activity change, negative = inhibition"
CCCc1noc(-c2ccn3c(CNC(=O)c4ccc(OC)cc4)nnc3c2)n1,"inconclusive: 70.8 µM [inhibitor, single point]",–
Clc1ccc2c(c1)c1ccccc1n2CN1CCOCC1,"inconclusive: 35.5 µM [inhibitor, partial curve, poor fit]",–
CCOC(=O)c1ccc(Nc2nc(N)c3cc(OC)c(OC)cc3n2)cc1,"inconclusive: 50.1 µM [inhibitor, partial curve, poor fit]",–
O=C(Nc1cccc(-c2nnnn2C2CC2)c1)NC1CCCCCC1,–,inactive: -50%
Cc1ccc(/C=C/C(=O)c2cc3ccccc3oc2=O)cc1,"inconclusive: 89.1 µM [inhibitor, partial curve, poor fit]",–
N#C/C(C(N)=O)=C1/SC=C(c2ccccc2)N1c1ccccc1,"inconclusive: 112 µM [inhibitor, partial curve, poor fit]",–
CN(C)CCCN(C(=O)c1ccc(S(=O)(=O)N2CCCCCC2)cc1)c1nc2cc3c(cc2s1)OCO3,"inconclusive: 44.7 µM [inhibitor, partial curve, poor fit]",–
Cc1noc([C@@H](C)NC(=O)c2cc(C)n(C)n2)c1C(=O)O,"inconclusive: 15.8 µM [inhibitor, full curve, poor fit]",–
O=C1N(Cc2ccc(Cl)cc2)CCCN1c1ccc(C(=O)N2CCc3ccccc32)cc1,"inconclusive: 6.31 µM [inhibitor, full curve, poor fit]",–
Cc1ccccc1CSCCC(=O)NCCC1=CCCCC1,"inconclusive: 112 µM [inhibitor, partial curve, poor fit]",–
COC(=O)[C@@H]1[C@@H](CO)[C@@H]2Cn3c(ccc(Br)c3=O)[C@@H]2N1Cc1cccc(F)c1,"inconclusive: 44.7 µM [inhibitor, partial curve, poor fit]",–
COc1ccc(NC(=O)C2CC(=O)N(Cc3ccc(C)cc3)C2)cc1S(=O)(=O)N1CCCCC1 (stereo unspecified),"inconclusive: 100 µM [inhibitor, partial curve, poor fit]",–
Cc1cccc(Nc2c3c(nc4ccccc24)CCC3)c1,"inconclusive: 39.8 µM [inhibitor, partial curve, poor fit]",–
Cc1ccc(Cc2c(-c3ccco3)nc3ccc(Br)cn23)cc1,active: 39.8 µM,–
CCCN(CCC)CCCNC(=O)c1cc2c(=O)n(CC)c3ccccc3c2s1,"inconclusive: 0.562 µM [inhibitor, partial curve, poor fit]",–
COc1ccc(NC(=O)CC2C(=O)N(c3ccc(OC)cc3)C(=O)N2C2CCCCC2)cc1 (stereo unspecified),"inconclusive: 56.2 µM [inhibitor, partial curve, poor fit]",–
N#CC1(C#N)C(c2ccccc2)OC23CCCCC2C1(C#N)C(=N)O3 (stereo unspecified),"inconclusive: 11.2 µM [inhibitor, full curve]",–
NC(=O)c1nc2c([nH]c1=O)CCCC2,"inconclusive: 44.7 µM [inhibitor, partial curve, poor fit]",–
COC(=O)c1cc(NC(=O)c2ccccc2OC(F)F)ccc1F,–,inactive: -2.04%
Oc1ccc(-c2nccc(-c3cccs3)n2)cc1,"inconclusive: 89.1 µM [inhibitor, single point]",–
CCOc1ccc(S(=O)(=O)N2CCC(C(=O)N3CCN(Cc4ccccc4)CC3)CC2)cc1,–,inactive: 64.2%

Compound,Potency,"activity change, negative = inhibition"
CC(=O)c1ccc(NC(=O)O[C@@H]2CO[C@H]3[C@@H]2OC[C@@H]3NC(=S)NC2CCCCC2)cc1,"inconclusive: 39.8 µM [inhibitor, full curve]",–
Cc1ccc[n+](C(C)C(=O)c2ccc(-c3ccccc3)cc2)c1 (stereo unspecified),–,inactive: 4.23%
NC(=S)NNc1cc(Cl)cc(Cl)c1,"inconclusive: 4.47 µM [inhibitor, single point]",–
O=C(CCn1c(=O)oc2cc(S(=O)(=O)N3CCCC3)ccc21)Nc1ccc(OC(F)(F)F)cc1,"inconclusive: 10 µM [inhibitor, full curve, poor fit]",–
O=C(COC(=O)c1ccc2c(c1)NC(=O)CS2)NCc1cccs1,"inconclusive: 17.8 µM [inhibitor, partial curve, poor fit]",–
CC(C)Oc1ccccc1-c1nc(SCC(=O)O)n[nH]1,"inconclusive: 44.7 µM [inhibitor, partial curve, poor fit]",–
C(=C\c1nc2ccccc2[nH]1)/c1ccccc1,"inconclusive: 0.224 µM [inhibitor, full curve, poor fit]",–
Cc1nn(-c2ccc3nncn3n2)c2c1C(c1ccccc1Cl)CC(=O)N2 (stereo unspecified),–,inactive: 32.6%
Cc1noc(C)c1CSCC(=O)Nc1ccc(S(=O)(=O)C(F)F)cc1,"inconclusive: 39.8 µM [inhibitor, single point]",–
COc1ccc(C2NC(=S)N(c3ccccc3)C(C)=C2C(=O)Nc2ccccc2)cc1 (stereo unspecified),"inconclusive: 126 µM [inhibitor, single point]",–
CCc1nnc(NS(=O)(=O)c2ccc(N=Cc3c(C)[nH]n(-c4cccc(Cl)c4)c3=O)cc2)s1,"inconclusive: 79.4 µM [inhibitor, single point]",–
O=C(O)/C=C/C(=O)N1CCN(C(=O)/C=C/C(=O)O)CC1,"inconclusive: 17.8 µM [inhibitor, full curve, poor fit]",–
COc1ccc(CN2CCn3c(nn(-c4ccc([N+](=O)[O-])cc4)c3=O)C2)cc1,"inconclusive: 20 µM [inhibitor, full curve]",–
CN1C(=O)/C(=C/c2ccc(C(=O)Nc3ccc(O)cc3C(=O)O)cc2)SC1=S,"inconclusive: 50.1 µM [inhibitor, partial curve, poor fit]",–
CSc1ccc(S(=O)(=O)NCC(=O)OCC(=O)N2CC(C)CC(C)C2)cc1[N+](=O)[O-] (stereo unspecified),"inconclusive: 63.1 µM [inhibitor, partial curve, poor fit]",–
Cc1ccc(S(=O)(=O)Nc2nc3ccc(S(=O)(=O)N4CCCC4)cc3s2)cc1,"inconclusive: 39.8 µM [inhibitor, partial curve, poor fit]",–
Cc1ccc(-c2nnc([C@H]3CCN(C(=O)COCC(=O)O)C3)o2)cc1,"inconclusive: 14.1 µM [inhibitor, full curve]",–
Nc1ccccc1C#CC(=O)c1ccccc1,–,inactive: -9.27%
O=C(CSc1nnnn1C1CC2CCC1C2)Nc1ccnc2ccccc12 (stereo unspecified),"inconclusive: 79.4 µM [inhibitor, partial curve, poor fit]",–
CC/C(O)=C1\C(=O)CCCC1=NCCc1c(C)[nH]c2ccc(C)cc12,–,inactive: 0%
CS[C@H]1SC[C@@H]2C(=O)N(C)[C@H](C(C)C)C(=O)OC[C@H](NC(=O)c3cnc4ccccc4n3)C(=O)N[C@H](C)C(=O)N(C)[C@@H]1C(=O)N(C)[C@H](C(C)C)C(=O)OC[C@H](NC(=O)c1cnc3ccccc3n1)C(=O)N[C@H](C)C(=O)N2C,"inconclusive: 15.3 µM [inhibitor, partial curve, poor fit]",–

Compound,Potency,"activity change, negative = inhibition"
CCC(O)CNC(=O)c1cnn(-c2nccc(-c3cc(C)sc3C)n2)c1C1CC1 (stereo unspecified),–,inactive: 9.42%
CCOC(=O)N1CCN(C(=O)c2ccc3nc(N4CCC(C)CC4)sc3c2)CC1,–,inactive: 0%
COc1cc(C(CCN2CCCCC2)c2c(OC)cc(OC)c3c(C)cc(=O)oc23)cc(OC)c1OC (stereo unspecified),–,inactive: -1.73%
Cc1ccc2nc(-c3ccccc3)c(Cc3cccc(F)c3)n2c1,"inconclusive: 100 µM [inhibitor, partial curve, poor fit]",–
O=c1ccnc2n1COCS2,"inconclusive: 126 µM [inhibitor, partial curve, poor fit]",–
Cc1c(C(=O)O)sc2nc(-c3cccs3)cc(C(F)(F)F)c12,"inconclusive: 89.1 µM [inhibitor, partial curve, poor fit]",–
Cc1cc(N2CCCC2)nc(Nc2ccc(NC(=O)Nc3ccc(Cl)cc3)cc2)n1,"inconclusive: 50.1 µM [inhibitor, partial curve, poor fit]",–
CCOC(=O)COc1ccc2c(C)c(Cc3ccccc3)c(=O)oc2c1C,–,inactive: -27%
CCc1cccc(NC(=O)C2CCCN2S(=O)(=O)c2ccc3c(c2)n(C)c(=O)c(=O)n3C)c1 (stereo unspecified),inactive,–
N#Cc1cccc(CN2CCCC(c3nc4ccc(F)cc4c(=O)[nH]3)C2)c1 (stereo unspecified),"inconclusive: 35.5 µM [inhibitor, partial curve, poor fit]",–
CCOc1ccc(-n2c(C)cc(/C=N/NC(=O)C(N)=O)c2C)cc1,–,inactive: 11.1%
CCOc1cc(/C=N/NC(N)=O)ccc1OCC(=O)Nc1ccc(C)c(C)c1,"inconclusive: 56.2 µM [inhibitor, partial curve, poor fit]",–
O=C(CC(Nc1ccc(F)cc1)C(=O)O)c1ccccc1 (stereo unspecified),–,inactive: -22.5%
Brc1ccc(CNCCCSc2ncccn2)cc1,"inconclusive: 44.7 µM [inhibitor, partial curve, poor fit]",–
OCCNc1ncnc2c1c(-c1ccccc1)c(-c1ccccc1)n2Cc1ccco1,"inconclusive: 28.2 µM [inhibitor, partial curve, poor fit]",–
CCCSCCCNC(=O)CS(=O)(=O)Cc1nc(-c2ccc(C)cc2)oc1C,"inconclusive: 0.355 µM [inhibitor, full curve, poor fit]",–
CCOC(=O)C1C(=O)C=C(c2ccc(Br)cc2)CC1c1ccco1 (stereo unspecified),–,inactive: 1.38%
COc1ccc(C(=O)COC(=O)c2ccc3c(c2)OCO3)c(OC)c1,"inconclusive: 35.5 µM [inhibitor, partial curve, poor fit]",–
CCOC(=O)c1ccc(NC(=O)NC2CC3CCC(C2)N3)cc1 (stereo unspecified),"inconclusive: 56.2 µM [inhibitor, partial curve, poor fit]",–

# Looked up above.
# Entry for `Cc1c(C(=O)O)sc2nc(-c3cccs3)cc(C(F)(F)F)c12` under Potency: inconclusive: 89.1 µM [inhibitor, partial curve, poor fit]
# Entry for `Cc1ccc2nc(-c3ccccc3)c(Cc3cccc(F)c3)n2c1` under Potency: inconclusive: 100 µM [inhibitor, partial curve, poor fit]
# Entry for `O=c1ccnc2n1COCS2` under Potency: inconclusive: 126 µM [inhibitor, partial curve, poor fit]
